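Assay of Toxoplasma gondii numbers, read through their beta-galactosidase reporter with a colour substrate. Tested at 50 µM. The record gives no direction; the compounds picked for IC50 retests had high values, so higher reads as fewer parasites. Of about 18,000 compounds tested this way, about 170 (0.94%) reached 50% or more in at least one test.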

Each number is a percent effect as filed.
The controls that fix the scale are not given in the record; negative values are as filed.
This is an unselected part of the compounds tested.

* CC(Nc1cccc(C(N)=O)c1)C(=O)N1CCNC1=O (centres unmarked) : 5.269%
* CO[C@@H]1CCCC[C@@H]1CN : -10.81%
* Cc1cc(NC(=O)NCC2CCN(CCO)CC2)no1 : 29.16%
* O=C(NCc1csc(N2CCCC2)n1)C1CNCCO1 (centres unmarked) : 26.16%
* OCC12CCCN(CC1)C2 (centres unmarked) : -1.014%
* CC1COCCN1C(=O)Cc1cccc2cccnc12 (centres unmarked) : -21.13%
* CCCN(CC(=O)NC)C(=O)c1cc(C)ccc1O : -3.11%
* CCOc1ccc2cc(S(=O)(=O)NCCO)ccc2c1 : -4.898%
* O=C1CCCCN1c1ccc(S(=O)(=O)NC2CC2)cc1 : 98.35%
* CCOc1ccccc1C(=O)N1CCCN(C)CC1 : -6.927%
* CC(C)C(N)C1(CO)CCCC1 (centres unmarked) : -8.917%
* O=C(CN1CCN(CCO)CC1)Nc1ccc(Br)cn1 : 2.183%
* COc1ccc(Nc2nnc(SC(C)C(N)=O)s2)cc1 (centres unmarked) : 6.856%
* CN(C)C(=O)Cc1ccc(NC(=O)C2CC2)cc1 : -21.34%
* NCC1CCCSC1 (centres unmarked) : -0.09333%
* CC(C)(C#N)C(=O)NCCNc1cccc(Br)c1 : 28.16%
* Cc1ccc(C(=O)COC(=O)c2cccnc2N)cc1 : -8.374%
* NC1CCN(C2CCOCC2)CC1 : -9.467%
* CN1C(=O)C[C@H](N)[C@H]1c1cccnc1 : -6.673%
* Cc1nc(CCSc2nnc(C)n2CC(N)=O)cs1 : -2.165%
* NCCCOC1CCN(C(=O)c2ccc(Br)o2)CC1 : -8.227%
* O=C(Cc1c[nH]c2ncccc12)NCc1cccnc1 : -18.37%
* CCc1ccc(CN2CCC(O)(CN(C)C)C2)nc1 (centres unmarked) : 0.3312%
* CCc1noc(C)c1C(=O)N1CCC2(CC1)OCCO2 : 3.128%

For reference, 3 entries once more:

- CCCN(CC(=O)NC)C(=O)c1cc(C)ccc1O | -3.11%
- CC(C)(C#N)C(=O)NCCNc1cccc(Br)c1 | 28.16%
- CCOc1ccccc1C(=O)N1CCCN(C)CC1 | -6.927%

From ChEMBL document CHEMBL3988442, “University of Dundee, Small-Polar-MMV Screening Library” (2021).